Binding data for two molecules are collected here from paper PMC11429822.

The chains behind the UniProt entries cited, without tags or fusion partners.
UniProt Q04206: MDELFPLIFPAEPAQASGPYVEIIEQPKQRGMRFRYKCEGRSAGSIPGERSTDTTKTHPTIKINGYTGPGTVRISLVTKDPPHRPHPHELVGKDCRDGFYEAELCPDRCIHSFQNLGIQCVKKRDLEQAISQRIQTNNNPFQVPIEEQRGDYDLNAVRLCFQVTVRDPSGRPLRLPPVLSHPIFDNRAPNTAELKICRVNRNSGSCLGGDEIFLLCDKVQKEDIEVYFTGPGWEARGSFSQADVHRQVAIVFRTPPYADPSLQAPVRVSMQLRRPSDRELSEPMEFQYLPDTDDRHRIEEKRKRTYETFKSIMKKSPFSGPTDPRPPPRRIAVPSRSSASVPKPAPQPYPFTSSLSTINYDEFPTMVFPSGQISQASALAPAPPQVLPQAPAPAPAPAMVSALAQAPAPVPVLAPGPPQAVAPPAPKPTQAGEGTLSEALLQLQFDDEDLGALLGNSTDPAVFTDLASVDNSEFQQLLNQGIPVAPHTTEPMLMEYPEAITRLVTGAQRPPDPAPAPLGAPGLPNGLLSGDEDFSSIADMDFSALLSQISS

These are yes or no findings as the source states them, for the method shown. In cells and extracts the contact can be indirect.

Assay [1] concerns the target NF-κB p65 (human (endogenous in SNU719)) (UniProt Q04206). In words: co-IP; SNU719 cells treated with 100 nM DHT for 48 h, lysed in RIPA lysis buffer; IP with anti-p65 Ab or anti-NF-κB2 p100/52 Ab at 4 °C overnight, Dynabeads Protein G, washed thrice with lysis buffer; Western blot with anti-AR Ab; rabbit IgG as negative control. A general note: In western blotting, separated proteins are transferred to a membrane and probed.

Assay [2] addresses T1, NF-κB p52 (human (endogenous in SNU719)), Q00653.
T1 chain: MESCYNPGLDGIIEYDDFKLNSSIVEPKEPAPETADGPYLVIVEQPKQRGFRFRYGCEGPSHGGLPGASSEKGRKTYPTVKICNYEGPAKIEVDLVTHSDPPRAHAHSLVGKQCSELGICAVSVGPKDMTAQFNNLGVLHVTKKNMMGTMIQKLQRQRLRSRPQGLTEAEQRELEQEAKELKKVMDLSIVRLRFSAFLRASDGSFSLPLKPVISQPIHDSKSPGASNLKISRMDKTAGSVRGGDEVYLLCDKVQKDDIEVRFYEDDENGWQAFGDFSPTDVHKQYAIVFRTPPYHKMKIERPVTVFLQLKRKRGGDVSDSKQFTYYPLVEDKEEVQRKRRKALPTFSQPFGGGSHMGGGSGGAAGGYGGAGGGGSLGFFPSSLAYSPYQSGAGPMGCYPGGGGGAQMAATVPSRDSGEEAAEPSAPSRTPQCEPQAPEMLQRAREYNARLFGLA
Described as above. The following applies: remark: other sources report otherwise.

Turning to “androgen receptor (from UniProt P10275 1-920)”, in assay [1], the binding entry was “no binding”.

B1: androgen receptor, P10275 1-920 (protein)
chain: MEVQLGLGRVYPRPPSKTYRGAFQNLFQSVREVIQNPGPRHPEAASAAPPGASLLLLQQQQQQQQQQQQQQQQQQQQQQQETSPRQQQQQQGEDGSPQAHRRGPTGYLVLDEEQQPSQPQSALECHPERGCVPEPGAAVAASKGLPQQLPAPPDEDDSAAPSTLSLLGPTFPGLSSCSADLKDILSEASTMQLLQQQQQEAVSEGSSSGRAREASGAPTSSKDNYLGGTSTISDNAKELCKAVSVSMGLGVEALEHLSPGEQLRGDCMYAPLLGVPPAVRPTPCAPLAECKGSLLDDSAGKSTEDTAEYSPFKGGYTKGLEGESLGCSGSAAAGSSGTLELPSTLSLYKSGALDEAAAYQSRDYYNFPLALAGPPPPPPPPHPHARIKLENPLDYGSAWAAAAAQCRYGDLASLHGAGAAGPGSGSPSAAASSSWHTLFTAEEGQLYGPCGGGGGGGGGGGGGGGGGGGGGGGEAGAVAPYGYTRPPQGLAGQESDFTAPDVWYPGGMVSRVPYPSPTCVKSEMGPWMDSYSGPYGDMRLETARDHVLPIDYYFPPQKTCLICGDEASGCHYGALTCGSCKVFFKRAAEGKQKYLCASRNDCTIDKFRRKNCPSCRLRKCYEAGMTLGARKLKKLGNLKLQEEGEASSTTSPTEETTQKLTVSHIEGYECQPIFLNVLEAIEPGVVCAGHDNNQPDSFAALLSSLNELGERQLVHVVKWAKALPGFRNLHVDDQMAVIQYSWMGLMVFAMGWRSFTNVNSRMLYFAPDLVFNEYRMHKSRMYSQCVRMRHLSQEFGWLQITPQEFLCMKALLLFSIIPVDGLKNQKFFDELRMNYIKELDRIIACKRKNPTSCSRRFYQLTKLLDSVQPIARELHQFTFDLLIKSHMVSVDFPEMMAEIISVQVPKILSGKVKPIYFHTQ
As for B1, the binding entry in assay [2] was “no binding”.
